Measurements reported in PubChem BioAssay AID1259254 (NCATS, 2017).

- Purpose: 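Finding genes that stop cells copying their DNA twice in one cycle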 (primary screen)
- Cells: human HCT116 colorectal cancer cells
- Reagent: single siRNA against human genes
- Timing: 3 days
- Detection: 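Nuclei stained with Hoechst and imaged; cell-cycle phase assigned by DNA content; G2 share scaled per plate, non-targeting siRNA 0%, GMNN siRNA 100%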
- Direction: G2 robust z-score: higher = more G2 cells, more excess DNA replication
- Hit rule: 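Active siRNAs have a G2 robust z of 5 or more median absolute deviations over the median, which in these data means about 38% or higher of GMNN control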
This is one part, drawn at random, of about 59,000 reagents. Over the whole deposit, about 1,550 (2.6%) were called active. 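G2 share is only a proxy for re-replication; each gene was hit by three separate siRNAs, and active genes were retested.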 Entries without a mark were called inactive. Reagents against one gene are numbered here. Not all columns of the deposit are shown. No sequences are given here. Not stated in the record: the amount of reagent.

no.	gene symbol	siRNA no.	G2 robust z-score
1	BAG3 (GeneID 9531)	1	-0.355
2	BAG3 (GeneID 9531)	2	0.672
3	BAG3 (GeneID 9531)	3	0.125
4	SLC7A11 (GeneID 23657)	1	3.5
5	SLC7A11 (GeneID 23657)	2	-0.319
6	SLC7A11 (GeneID 23657)	3	-1.12
7	HCFC1 (GeneID 3054)	1	-0.374
8	HCFC1 (GeneID 3054)	2	-1.22
9	HCFC1 (GeneID 3054)	3	4.23
10	OR10Q1 (GeneID 219960)	1	2.32
11	OR10Q1 (GeneID 219960)	2	-0.602
12	OR10Q1 (GeneID 219960)	3	-0.0438
13	PRSS48 (GeneID 345062)	1	-0.526
14	PRSS48 (GeneID 345062)	2	-1.31
15	PRSS48 (GeneID 345062)	3	-0.874
16	RPUSD2 (GeneID 27079)	1	-0.506
17	RPUSD2 (GeneID 27079)	2	1.47
18	RPUSD2 (GeneID 27079)	3	-0.5
19	ARSK (GeneID 153642)	1	1.42
20	ARSK (GeneID 153642)	2	0.125
21	ARSK (GeneID 153642)	3	0.00558
22	KCTD17 (GeneID 79734)	1	0.026
23	KCTD17 (GeneID 79734)	2	0.0941
24	KCTD17 (GeneID 79734)	3	-0.169
25	PHF6 (GeneID 84295)	1	1.88
26	PHF6 (GeneID 84295)	2	1.77
27	PHF6 (GeneID 84295)	3	-0.88
28	KCNJ1 (GeneID 3758)	1	-0.475
29	KCNJ1 (GeneID 3758)	2	-0.843
30	KCNJ1 (GeneID 3758)	3	0.165

Ordered by “G2 robust z-score” (low to high): 2 of the entries above.
gene symbol	siRNA no.	G2 robust z-score
PHF6 (GeneID 84295)	3	-0.88
KCNJ1 (GeneID 3758)	1	-0.475
